Where a name gives a salt, the structure may show the parent alone. Read-outs that look alike come from different tables or passages of the source. Among all 3,300 compounds or so, about 95 (3%) showed an effect of 50% or more. The list shows a part of the results.
Test system: HCoV-229E
Design: species or system Huh-7; HTS, protection from HCoV-229E induced cell death, luminescent cell viability (CellCounting-Lite 2.0), inhibition rate
Conditions: 24 h post infection, 1 h compound pre-incubation, 10 µM, inhibitor

Row | Compound | 229E Inhibition rate [%] | 229E Inhibition rate (229E Inhibition rate, 24 h) [%]
1 | CCC/C=C1\OC(=O)C2=C1CCC=C2 [(Z)-Ligustilide] | 17.8 | 
2 | CC(C)=CCC/C(C)=C/COc1c2ccoc2cc2oc(=O)ccc12 [Bergamottin] | 4.6 | 
3 | Nc1nc2c(ncn2[C@H]2C[C@H](O)[C@@H](CO)O2)c(=O)[nH]1 [2'-Deoxyguanosine] |  | 7.2
4 | OC[C@H]1OC(O)[C@H](O)[C@H](O)[C@@H]1O (stereo partly drawn) [D-Allose] | 0 | 
5 | COC(=O)C1=CO[C@@H](O[C@@H]2O[C@H](CO)[C@@H](O)[C@H](O)[C@H]2O)[C@@H]2[C@H](C)O[C@@H](O)C[C@H]12 [Morroniside] | 10 | 
6 | O=C1c2c(O)cc(O)cc2O[C@H](c2ccc(O)cc2)[C@H]1O [Dihydrokaempferol] | 9.9 | 
7 | COc1cc(O)c2c(=O)c(O)c(-c3ccc(O)c(O)c3)oc2c1 [Rhamnetin] | 23.8 | 
8 | CCCCC(C)CCC(=O)O (stereo not shown) [4-Methyloctanoic acid] | 20.3 | 
9 | CC(=O)N[C@@H](CCC(N)=O)C(=O)O [Aceglutamide] | 11.5 | 
10 | O=C1CCCCC1=O [1,2-Cyclohexanedione] | 20.8 | 
11 | O=Cc1ccc(O)c(O)c1 [Protocatechualdehyde] | 10.5 | 
12 | OC[C@@H](O)C(O)[C@H](O)CO [D-Arabitol] | 46.4 | 
13 | N[C@@H](CCC(=O)N[C@@H](CS)C(=O)O)C(=O)O [Gamma-glutamylcysteine] | 25.4 | 
14 | COc1cc2c(cc1O)C[C@H]1c3c(cc(O)c(OC)c3-2)CCN1C [Boldine] | 13.1 | 
15 | Cn1c(=O)c2c(ncn2CC(=O)O)n(C)c1=O [Acefylline] | 13 | 
16 | O=C1O[C@H](CO)[C@@H](O)[C@H](O)[C@H]1O [D-(+)-Glucono-1,5-lactone] | 14.2 | 
17 | CC(=O)N[C@@H](CC(=O)O)C(=O)O [N-Acetyl-L-aspartic acid] | 0 | 
18 | C=C(C)[C@@H]1CC[C@]2(C)CC[C@]3(C)[C@H](CC[C@@H]4[C@@]5(C)CCC(=O)C(C)(C)[C@@H]5CC[C@]43C)[C@@H]12 [Lupenone] | 9.9 | 
19 | O=C(CO)CO [1,3-Dihydroxyacetone] | 35.5 | 
20 | COc1cc2c(c(OC)c1OC)-c1c(cc3c(c1OC)OCO3)C[C@H](C)[C@@](C)(O)C2 [Schisandrol B] | 7.8 | 
21 | CC(=O)c1ccc(O)cc1C [4′-Hydroxy-2′-methylacetophenone] | 10.9 | 

Row | Compound | 229E Inhibition rate [%] | 229E Inhibition rate (229E Inhibition rate, 24 h) [%]
22 | CN1[C@H]2C[C@H](OC(=O)[C@H](CO)c3ccccc3)C[C@@H]1[C@@H](O)C2 [Anisodamine (hydrobromide)] |  | 5.4
23 | O=c1cccccc1 [Tropone] | 6.6 | 
24 | Cc1ncc(C[n+]2csc(CCO)c2C)c(N)n1 [Thiamine monochloride] |  | 10.3
25 | C[C@H](CC[C@@H](O[C@@H]1O[C@H](CO)[C@@H](O)[C@H](O)[C@H]1O[C@@H]1O[C@H](CO)[C@@H](O)[C@H](O)[C@H]1O)C(C)(C)O)[C@H]1CC[C@@]2(C)[C@@H]3CC=C4[C@@H](CC[C@H](O[C@@H]5O[C@H](CO)[C@@H](O)[C@H](O)[C@H]5O)C4(C)C)[C@]3(C)[C@H](O)C[C@]12C [Mogroside III-E] | 20.6 | 
26 | CC(C)(S)[C@@H](N)C(=O)O [Penicillamine] | 11.1 | 
27 | C[C@H]1CC[C@]2(NC1)O[C@H]1C[C@H]3[C@@H]4CC[C@H]5C[C@@H](O[C@@H]6O[C@H](CO)[C@H](O[C@@H]7O[C@H](CO)[C@@H](O)[C@H](O[C@@H]8OC[C@@H](O)[C@H](O)[C@H]8O)[C@H]7O[C@@H]7O[C@H](CO)[C@@H](O)[C@H](O)[C@H]7O)[C@H](O)[C@H]6O)CC[C@]5(C)[C@H]4CC[C@]3(C)[C@H]1[C@@H]2C [Tomatine] | 11.4 | 
28 | O=c1ccc2ccc(O)c(O)c2o1 [Daphnetin] | 22.3 | 
29 | COc1ccc([C@H]2OC[C@H]3[C@@H]2CO[C@@H]3c2ccc(OC)c(OC)c2)cc1OC [Pinoresinol dimethyl ether] |  | 18
30 | CC(=O)NCCc1c[nH]c2ccc(O)cc12 [N-Acetyl-5-hydroxytryptamine] | 0 | 
31 | CN(C)c1nc2c(ncn2[C@@H]2O[C@H](CO)[C@@H](O)[C@H]2O)c(=O)[nH]1 [N2,N2-Dimethylguanosine] | 18.2 | 
32 | COc1c(O[C@@H]2O[C@H](CO[C@@H]3OC[C@@H](O)[C@H](O)[C@H]3O)[C@@H](O)[C@H](O)[C@H]2O)cc2occ(-c3ccc(O)cc3)c(=O)c2c1O [Tectorigenin 7-O-Xylosyl Glucoside] | 13.2 | 
33 | O=c1c(O)c(-c2ccc(O[C@@H]3O[C@H](CO)[C@@H](O)[C@H](O)[C@H]3O)c(O)c2)oc2cc(O)cc(O)c12 [Spiraeoside] | 32.6 | 
34 | O=C1O[C@H]2[C@@H]3OC(=O)c4cc(O)c(O)c(O)c4-c4c(O)c(O)c5oc(=O)c6c(c(O)c(O)c7oc(=O)c4c5c76)-c4c(cc(O)c(O)c4O)C(=O)OC[C@H]3OC(O)[C@@H]2OC(=O)c2cc(O)c(O)c(O)c2-c2c1cc(O)c(O)c2O (mixture of isomers) [Punicalagin] | 13.6 | 
35 | OCC1=C[C@@H](O)[C@@H]2C=CO[C@@H](O[C@@H]3O[C@H](CO)[C@@H](O)[C@H](O)[C@H]3O)[C@H]12 [Aucubin] | 11.7 | 
36 | c1csc(-c2ccc(-c3cccs3)s2)c1 [2,2':5',2''-Terthiophene] | 21.7 | 
37 | O=C(O)c1ccc2ccccc2c1O [1-Hydroxy-2-naphthoic acid] | 0 | 
38 | COC(=O)c1ccccc1O [Methyl Salicylate] | 8.1 | 
39 | COc1cc([C@@H]2Oc3c(O)cc([C@H]4Oc5cc(O)cc(O)c5C(=O)[C@@H]4O)cc3[C@H]2CO)ccc1O [Silychristin] | 11.3 | 
40 | O=C(/C=C/c1ccc(O)c(O)c1)O[C@@H]1C[C@](OC(=O)/C=C/c2ccc(O)c(O)c2)(C(=O)O)C[C@@H](O)[C@H]1O [1,3-Dicaffeoylquinic acid] | 7.4 | 
41 | CC(C)[C@@H]1CC[C@@H](C)C[C@H]1O [(-)-Menthol] |  | 9.8
42 | C/C(=C\C(=O)CC(C)C(=O)O)[C@H]1C[C@H](O)[C@@]2(C)C3=C(C(=O)C[C@]12C)[C@@]1(C)CCC(=O)C(C)(C)[C@@H]1C[C@@H]3O (stereo partly shown) [Ganoderenic acid A] | 41.5 | 

Row | Compound | 229E Inhibition rate [%] | 229E Inhibition rate (229E Inhibition rate, 24 h) [%]
43 | C[C@@H]([C@H](C)O)[C@H](N)C(=O)O [(2S,3R,4S)-4-Hydroxyisoleucine] | 14 | 
44 | OC[C@H]1OC(O[C@H]2[C@H](O)[C@@H](CO)OC(O[C@H]3[C@H](O)[C@@H](CO)OC(O)[C@@H]3O)[C@@H]2O)[C@H](O)[C@@H](O)[C@@H]1O (stereo partly shown) [Laminaran] | 8.9 | 
45 | O=C[C@H](O)[C@@H](O)[C@@H](CO)O[C@@H]1OC[C@@H](O[C@@H]2OC[C@@H](O[C@@H]3OC[C@@H](O[C@@H]4OC[C@@H](O)[C@H](O)[C@H]4O)[C@H](O)[C@H]3O)[C@H](O)[C@H]2O)[C@H](O)[C@H]1O [1,4-b-D-Xylopentaose] | 9.4 | 
46 | COc1cc(/C=C/C(=O)O)ccc1O [Ferulic acid (sodium)] |  | 36.8
47 | CC(/C=C/C=C(\C)C(=O)O)=C\C=C\C=C(C)\C=C\C=C(/C)C(=O)O [Crocetin] |  | 7.7
48 | OC[C@H]1O[C@@H](Oc2cc(O)ccc2/C=C/c2cc(O)cc(O)c2)[C@H](O)[C@@H](O)[C@@H]1O [Oxyresveratrol 2-O-β-D-glucopyranoside] | 17.2 | 
49 | O=C(Nc1ccccc1)Nc1ccnc(Cl)c1 [Forchlorfenuron] | 13.7 | 
50 | COc1ccc(/C=C/C(=O)O)cc1 [4-Methoxycinnamic acid] |  | 0
51 | CCCCC1OC(=O)C2=CCCCC21 (stereo not shown) [Sedanolide] | 38.5 | 
52 | C[C@H](CCC(=O)O)[C@H]1CC[C@H]2[C@@H]3C=CC4=CC(=O)CC[C@]4(C)[C@H]3CC[C@]12C [3-Oxo-4,6-choladien-24-oic acid] | 23.7 | 
53 | C[C@H](CCC(=O)NCC(=O)O)[C@H]1CC[C@H]2[C@@H]3CC[C@@H]4C[C@H](O)CC[C@]4(C)[C@H]3C[C@H](O)[C@]12C [Glycodeoxycholic acid (monohydrate)] |  | 0
54 | O=c1cc(-c2ccc(O)c(O)c2)oc2cc(O)cc(O)c12 [Luteolin] | 0 | 
55 | CN1CC(=O)NC1=N [Creatinine] | 19.7 | 
56 | O=c1c(O[C@@H]2O[C@H](CO)[C@@H](O)[C@H](O)[C@H]2O[C@@H]2O[C@H](CO)[C@@H](O)[C@H](O)[C@H]2O)c(-c2ccc(O)cc2)oc2cc(O)cc(O)c12 [Kaempferol 3-O-sophoroside] | 45.9 | 
57 | C=C(C)C1CC=C(C)C(O)C1 (mixture of isomers) [Carveol] | 14.5 | 
58 | C=C[C@@]1(C)CC[C@H]2C(=CC[C@@H]3[C@]2(C)CCC[C@@]3(C)C(=O)O)C1 [Isopimaric acid] | 12.8 | 
59 | C=C1[C@@H](O)[C@]2(O)OC[C@]34[C@H]2[C@@]2(C)[C@H](O)C(=O)C=C(C)[C@@H]2C[C@H]3OC(=O)[C@H](O)[C@@]14O [Eurycomanone] | 53.4 | 
60 | COc1cccc(CCc2cc(O)cc(OC)c2)c1 [3'-O-Methylbatatasin III] | 10.1 | 
61 | N[C@@H](CS)C(=O)O [L-Cysteine (hydrochloride hydrate)] |  | 18.1

— publication PMC12431657, “Discovery and mechanistic insights of dibenzoylmethane as a broad spectrum inhibitor of coronavirus” (PLOS Pathogens, 2025)
